“Also recorded” adds a separate entry of the source. For at least one compound, name, drawing or mass did not settle the structure. Some of these results come from one statement about several compounds together.
Tests used:
[1] = test system: TPA-induced inflammation of the mouse ear; assay: Anti-inflammatory activity, TPA-treated mouse ear; type: in vivo, ICR mice; conditions: 0.5% in acetone, topical
Protocol: The adenosine derivatives of the present invention were examined for anti-inflammatory activity in the following animal test. Seven-week-old male ICR mice were treated with TPA (12-O-tetradecanoylphorbol-13-acetate, 20 μl) in the right ear. […] Hydrocortisone was used at the same concentration as a control.
6 hrs after treatment with TPA, the mice were secondarily treated with the adenosine derivatives of the present invention. 24 hrs after TPA treatment, test animals were euthanized using a cervical dislocation method. Samples were obtained from the right ear using a 6 mm diameter punch. The activity was observed by measuring the ear sample using a microbalance. Percentages of inhibition were calculated using the following Equation 1. The compositions and amounts used in these experiments are summarized in Tables 2 to 5 and the anti-inflammatory activities thereof are shown in FIGS. 2 to 5.

[2] = test system: NASH- or NAFLD-induced mice; assay: Efficacy test on NASH or NAFLD and liver fibrosis in NASH- or NAFLD-induced mice; type: in vivo
Protocol: As a comparison group, eight normal mice were given no treatment until 10 weeks of age. As a positive control group, eight NASH- or NAFLD-induced mice were orally administered with 10 mg/kg of telmisartan (i.e., a hypertension medication) once a day for six to 10 weeks of age. As a negative control group, eight NASH- or NAFLD-induced mice were orally administered with only 10 mL/kg of 0.5% methyl cellulose (i.e., a vehicle) once a day for 6 to 10 weeks of age.
Then, for the livers of the experimental animals at 10 weeks of age, the degree of steatosis, inflammation and ballooning were measured using HE staining, and the area of fibrosis was observed and measured using Sirius red staining.

[3] = test system: hepatic stellate cells; assay: Antifibrotic effect on hepatic stellate cells, real-time PCR; type: cell-based, mouse; conditions: 2, 4 and 8 μM
[4] = Experimental Example 9-1, 7 mg/kg oral
[5] = oral 7, 15, 30 mg/kg once a day

Compound	anti-inflammatory activity (in words) [1]	area of fibrosis, low dose [2, 4]	ballooning score of the liver, low dose [2, 4]	fibrosis of the liver ([2]; Sirius red staining, 7, 15, 30 mg/kg oral)	ballooning score of the liver [2, 5]	inflammation score of the liver [2, 5]	steatosis score of the liver ([2]; oral once a day, 6 to 10 weeks of age, vs negative control, HE staining)	NASH or NAFLD activity score ([2]; sum of steatosis, inflammation and ballooning scores, 7, 15, 30 mg/kg oral)	expression of Timp1 [3]	expression of alpha smooth muscle actin (Acta2) [3]	expression of collagen (Colla1) [3]
O[C@@H]1[C@H](O)CS[C@H]1n1cnc2c(NCc3cccc(Br)c3)nc(Cl)nc21 [Example 3, (2R,3R,4S)-2-(2-Chloro-6-(3-bromobenzylamino)-9H-purin-9-yl)tetrahydrothiophen-3,4-diol]	decrease inflammation of the ears to some degree; also recorded: inhibit the TPA-induced inflammation of the mouse ear to some degree										
O[C@@H]1[C@H](O)CS[C@H]1n1cnc2c(NCc3cccc(I)c3)nc(Cl)nc21 [Example 4, (2R,3R,4S)-2-(2-Chloro-6-(3-iodobenzylamino)-9H-purin-9-yl)tetrahydrothiophen-3,4-diol]	decrease inflammation of the ears to some degree; also recorded: inhibit the TPA-induced inflammation of the mouse ear to some degree										
O[C@@H]1[C@H](O)CS[C@H]1n1cnc2c(NCc3cccc(Cl)c3)nc(Cl)nc21 [Example 2, (2R,3R,4S)-2-(2-Chloro-6-(3-chlorobenzylamino)-9H-purin-9-yl)tetrahydrothiophen-3,4-diol]	decrease inflammation of the ears to some degree; also recorded: inhibit the TPA-induced inflammation of the mouse ear to some degree	noticeably reduced	noticeable reduction in ballooning	fibrosis-inhibitory activity dependent on the dose	dose-dependent reduction in ballooning	anti-inflammatory activity dependent on the dose	no significant decrease in steatosis was observed	significant activity for the alleviation of NASH or NAFLD in a dose-dependent manner	reduced in a concentration-dependent manner	also reduced in a concentration-dependent manner	also reduced

Reference: patent publication US11266650B2, “Pharmaceutical composition for preventing and treating nonalcoholic steatohepatitis, hepatic fibrosis, and liver cirrhosis, comprising adenosine derivatives” (FUTURE MEDICINE CO., LTD., priority 2016, dated 2022)
